Reference: patent US20190144543A1 (TAYU HUAXIA BIOTECH MEDICAL GROUP, published 2019)
Where a chain is given by its changes, count along the chain named. No constants are given. Whether binding was seen depends on the method and setting. Some binding calls cover weakened binding; strength is not graded here.

Sequences of proteins named here, by UniProt entry; tags and fusion partners are left off. A change or cut given only in a name is not applied to a line headed by its entry.
UniProt Q15116: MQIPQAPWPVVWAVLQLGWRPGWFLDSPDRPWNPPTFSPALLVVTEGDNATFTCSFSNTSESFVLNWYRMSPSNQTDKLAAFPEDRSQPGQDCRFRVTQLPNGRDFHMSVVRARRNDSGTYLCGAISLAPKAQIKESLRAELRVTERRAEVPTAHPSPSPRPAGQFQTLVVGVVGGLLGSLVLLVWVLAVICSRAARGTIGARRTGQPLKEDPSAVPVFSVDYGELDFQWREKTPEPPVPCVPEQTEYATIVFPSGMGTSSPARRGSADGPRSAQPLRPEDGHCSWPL

B1: TY101-01-09 (antibody, V domains shown)
VH: EVQLVESGGGLVQPGGSLRLSCAASGFTFSSYTMSWVRQAPGKGLEWVSYISHGGGDTYYADSVKGRFTISRDNSKNTLYLQMNSLRAEDTAVYYCARHSGYERGYYYVMDYWGQGTLVTVSS
VL: DIQLTQSPDSLSVSLGERATINCKASESVDYYGFSFLNWFQQKPGQPPKLLIYAASNRQSGVPDRFSGSGSGTDFTLTISSLQAEDVAVYFCQQSKEVPWTFGQGTKLEIKR
notes: TY101 is Variant 3 (VH a, VK c); isotype control is hIgG4; also called TY101 clone TY101-01-09
B2: TY101-04-T3-05 (antibody, V domains shown)
VH: B1 VH
VL: B1 VL
notes: TY101 is Variant 3 (VH a, VK c); isotype control is hIgG4; also called TY101 clone TY101-04-T3-05
B3: TY101-4G1 (antibody, V domains shown)
VH: B1 VH
VL: B1 VL
notes: TY101 is Variant 3 (VH a, VK c); isotype control is hIgG4; also called TY101 clone TY101-4G1
B4: Variant 7 (humanized, VH variant c / VK variant a) (antibody, V domains shown)
VH: B1 VH with Q3K, V5L, A61P, Q115K, L118T
VL: DIVMTQSPDSLAVSLGERATINCKSSESVDYYGFSFLNWFQQKPGQPPKLLIYAASNRESGVPDRFSGSGSGTDFTLTISSLQAEDVAVYYCQQSKEVPWTFGQGTKLEIK
B5: Variant 9 (humanized, VH variant c / VK variant c) (antibody, V domains shown)
VH: B1 VH with Q3K, V5L, A61P, Q115K, L118T
VL: B4 VL with V3Q, M4L, A12S, S25A, E59Q, Y91F
B6: Variant 8 (humanized, VH variant c / VK variant b) (antibody, V domains shown)
VH: B1 VH with Q3K, V5L, A61P, Q115K, L118T
VL: B4 VL with S25A

Biological target: cynomolgus monkey PD-1 (cPD-1) expressed on cells (cynomolgus monkey) (UniProt B0LAJ3)
Assay: flow cytometry, FACS binding to CHOK1-cPD-1 cells

binding	Binder
binds	B1
binds	B2
binds	B3

Biological target: T1, human PD-1 (hPD-1) expressed on cells (human, UniProt Q15116 25-288)
Assay: flow cytometry on CHO/hPD-1 cells (FIG. 8)

binding	Binder
binds	B4
binds	B5
binds	B6

Biological target: T1, human PD-1 (hPD-1) expressed on cells
Assay: flow cytometry on CHO/hPD-1 cells, serially diluted antibody (0.06 to 2 ng)

binding	Binder
binds	B4
binds	B5
binds	B6

Biological target: cynomolgus monkey PD-1 (cPD-1) expressed on cells (cynomolgus monkey) (UniProt B0LAJ3)
Assay: flow cytometry on CHOK1-cPD-1 cells

binding	Binder
binds	B1
binds	B2
binds	B3

Biological target: T1, human PD-1 (hPD-1) expressed on cells
Assay: flow cytometry on CHO/hPD-1 cells, serially diluted mAbs

binding	Binder
binds	B4
binds	B5
binds	B6

Biological target: T2, hPD-1mIg fusion protein (human; mouse, UniProt Q15116 25-170)
T2 construct: extracellular domain; also called hPD-mIg; not shown: CH2-CH3 domain of mouse IgG2a heavy chain (plasmid pmIgG)
Assay: blocking assay by flow cytometry: 100 ng hPD1mIg pre-incubated with the antibody, then binding to hPD-L1 on CHO/hB7-H1 cells

binding	Binder
binds	B4
binds	B5
binds	B6
